Laboratory results as given in article PMC6357186.
These are yes or no findings as the source states them, for the method shown. In cells and extracts the contact can be indirect. Some entries that bind do so weakly or less than the wild type.

The chains behind the UniProt entries cited, without tags or fusion partners.
UniProt P35222: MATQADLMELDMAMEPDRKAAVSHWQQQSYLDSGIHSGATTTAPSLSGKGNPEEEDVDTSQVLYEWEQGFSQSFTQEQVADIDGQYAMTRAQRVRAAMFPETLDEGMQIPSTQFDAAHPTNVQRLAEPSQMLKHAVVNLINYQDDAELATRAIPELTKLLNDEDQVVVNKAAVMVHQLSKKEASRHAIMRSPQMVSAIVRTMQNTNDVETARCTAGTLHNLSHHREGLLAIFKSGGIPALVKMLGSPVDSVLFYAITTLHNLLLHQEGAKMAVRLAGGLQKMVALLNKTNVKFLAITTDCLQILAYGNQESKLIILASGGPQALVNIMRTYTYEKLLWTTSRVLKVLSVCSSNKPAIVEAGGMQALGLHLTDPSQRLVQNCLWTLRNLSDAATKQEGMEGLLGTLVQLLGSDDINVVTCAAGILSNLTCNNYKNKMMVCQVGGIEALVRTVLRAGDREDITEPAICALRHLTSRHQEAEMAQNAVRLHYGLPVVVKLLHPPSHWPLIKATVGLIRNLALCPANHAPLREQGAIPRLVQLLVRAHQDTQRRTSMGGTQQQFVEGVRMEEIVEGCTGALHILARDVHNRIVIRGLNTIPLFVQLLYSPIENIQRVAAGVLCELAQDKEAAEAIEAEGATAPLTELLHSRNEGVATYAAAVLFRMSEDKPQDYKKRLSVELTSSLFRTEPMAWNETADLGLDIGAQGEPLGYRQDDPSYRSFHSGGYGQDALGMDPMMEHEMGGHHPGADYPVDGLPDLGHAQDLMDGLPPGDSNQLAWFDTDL
UniProt P08727: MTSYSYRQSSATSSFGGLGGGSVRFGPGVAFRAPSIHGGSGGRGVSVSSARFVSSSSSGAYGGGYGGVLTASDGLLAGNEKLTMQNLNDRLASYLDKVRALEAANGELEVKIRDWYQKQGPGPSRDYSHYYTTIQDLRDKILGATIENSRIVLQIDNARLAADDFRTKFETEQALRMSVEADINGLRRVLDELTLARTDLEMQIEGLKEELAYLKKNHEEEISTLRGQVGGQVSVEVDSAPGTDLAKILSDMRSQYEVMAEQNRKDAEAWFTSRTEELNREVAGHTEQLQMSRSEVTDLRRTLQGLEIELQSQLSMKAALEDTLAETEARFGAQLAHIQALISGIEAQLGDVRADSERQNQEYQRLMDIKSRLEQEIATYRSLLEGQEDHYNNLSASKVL

What was measured:
[1] = target: β-catenin (human (endogenous in colon and breast cancer cell lines)) (UniProt P35222); experiment: co-IP; colon cancer cells (lines as indicated in Figure 5c); 400 µg cell lysate precleared with protein A/G agarose, 3 to 4 µg primary antibody or normal IgG overnight at 4 °C, protein A/G agarose 3 h, washed thrice with cell lysis buffer, Western blot
[2] = target: β-catenin (human (endogenous in colon and breast cancer cell lines)) (UniProt P35222); experiment: co-IP; breast cancer cells (lines as indicated in Figure 5c); 400 µg cell lysate precleared with protein A/G agarose, 3 to 4 µg primary antibody or normal IgG overnight at 4 °C, protein A/G agarose 3 h, washed thrice with cell lysis buffer, Western blot

## Keratin 19 (from UniProt P08727 1-400)
[1]
  binding: binds
[2]
  binding: binds
